Source: paper PMC7575565
No constants are given. Whether binding was seen depends on the method and setting. In cells and extracts the contact can be indirect. Some entries that bind do so weakly or less than the wild type. For some assays here: Sequences can lack the tags named with a protein. One block for each molecule: values may come before it.

Chains of the proteins cited; added tags and fusions are not shown.
UniProt P08134: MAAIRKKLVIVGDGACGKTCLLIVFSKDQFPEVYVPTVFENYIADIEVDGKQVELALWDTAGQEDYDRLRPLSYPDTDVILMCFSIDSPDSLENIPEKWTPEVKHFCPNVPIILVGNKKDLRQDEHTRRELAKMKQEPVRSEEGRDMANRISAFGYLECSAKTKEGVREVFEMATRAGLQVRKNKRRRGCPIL

Assays:
RNF180-FLAG = target: T1, RNF180-FLAG (UniProt Q86T96); assay: co-IP; HEK293T cells co-transfected with the plasmids, 5 uM MG132 for 6 h; lysates immunoprecipitated with FLAG M2 affinity gel, washed with lysis buffer, immunoblotting
T1 sequence: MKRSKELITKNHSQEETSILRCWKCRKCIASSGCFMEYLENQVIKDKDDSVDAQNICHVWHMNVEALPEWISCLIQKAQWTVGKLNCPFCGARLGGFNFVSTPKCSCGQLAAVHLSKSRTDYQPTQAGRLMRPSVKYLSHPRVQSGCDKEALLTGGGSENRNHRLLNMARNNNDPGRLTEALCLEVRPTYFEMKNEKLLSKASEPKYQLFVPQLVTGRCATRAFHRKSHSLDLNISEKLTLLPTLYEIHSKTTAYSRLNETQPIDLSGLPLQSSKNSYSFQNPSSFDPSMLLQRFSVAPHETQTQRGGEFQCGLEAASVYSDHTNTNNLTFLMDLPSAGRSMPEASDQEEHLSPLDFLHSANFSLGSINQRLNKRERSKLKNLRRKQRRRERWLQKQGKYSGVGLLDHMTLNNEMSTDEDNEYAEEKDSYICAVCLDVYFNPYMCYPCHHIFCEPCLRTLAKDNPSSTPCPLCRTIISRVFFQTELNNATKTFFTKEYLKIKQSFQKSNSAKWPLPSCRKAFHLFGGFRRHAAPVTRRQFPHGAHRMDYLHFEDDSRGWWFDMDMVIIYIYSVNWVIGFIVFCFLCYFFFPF

RhoC-FLAG = RhoC-FLAG (UniProt P08134); assay: as above

binding (RNF180-FLAG): binds
Molecule: RhoC (from UniProt P08134 1-193)

binding (RhoC-FLAG): binds
B1: RNF180 (protein, UniProt Q86T96 1-592)
chain: T1 sequence
